Values from PubChem BioAssay AID686943 (Drosophila RNAi Screening Center, 2013)
Aim: 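Search across the genome for regulators of signalling from receptor tyrosine kinase to ERK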 (primary screen). Cells: Drosophila S2R+ haemocyte-like cells expressing YFP-tagged ERK (Rolled). Reagents: long dsRNA against Drosophila genes. Treatment: insulin stimulation versus unstimulated cells; dose and duration not given. Measured: 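Per-plate z-scores of phospho-ERK immunostaining normalised to YFP-tagged ERK, measured with and without insulin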. Reading the numbers: replicate 1, z-score of dpERK with insulin and replicate 2, z-score of dpERK with insulin: higher = more active ERK per ERK-YFP after insulin.
In all, the deposit lists about 23,000 reagents; shown is a random part of those with a known target gene and a result. 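Extra replicates exist only for a retested subset of genes; insulin dose and duration not given; both raised and lowered dpERK matter.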 Names joined by + are all predicted targets of the reagent. Not all columns of the deposit are shown. Not given: the amount of reagent, the time to read-out.

| Target gene | amplicon | replicate 1, z-score of dpERK with insulin | replicate 2, z-score of dpERK with insulin |
| --- | --- | --- | --- |
| Cse1 (Chromosome segregation 1) | DRSC03287 | -2.53 | -2.36 |
| CG14628 | DRSC18626 | -0.14 | -0.17 |
| Gr92a (Gustatory receptor 92a) | DRSC21631 | -0.79 | -0.11 |
| bug (bunker gear) | DRSC07137 | 0.4 | -0.05 |
| Wnt10 (Wnt oncogene analog 10) | DRSC00990 | -0.67 | -1.06 |
| Wnt10 (Wnt oncogene analog 10) | DRSC02797 | 0.34 | -0.04 |
| Grl58a (Gustatory receptor-like 58a) | DRSC04145 | -0.75 | 0.49 |
| CG7910 | DRSC16341 | 0.78 | 1.17 |
| CG11755 | DRSC14374 | 0.25 | 0.57 |
| CG31522 | DRSC12005 | -0.17 | -0.03 |
| CG6094 | DRSC02927 | 0.09 | 0.04 |
| CG6094 | DRSC22705 | -0.11 | 0.62 |
| AOX4 (Aldehyde oxidase 4) | DRSC15337 | -0.15 | -1.41 |
| row (relative of woc) | DRSC07076 | -1.15 | -0.64 |
| row (relative of woc) | DRSC07077 | -0.21 | -0.75 |
| CG10336 | DRSC02037 | -0.69 | 0.48 |
| CG34135 + CG11768 | DRSC12702 | -0.09 | 0.33 |
| Josd (Josephin domain containing) | DRSC18323 | 0.05 | -0.36 |
| rdgA (retinal degeneration A) | DRSC17863 | 0.44 | 0.26 |
| rdgA (retinal degeneration A) | DRSC18036 | 0.21 | 0 |
| rdgA (retinal degeneration A) | DRSC18827 | 0.47 | 0.27 |
| CG3603 | DRSC18317 | -1.02 | -0.3 |
| Xpc (Xeroderma pigmentosum, complementation group C) | DRSC07654 | -0.05 | 0.65 |
| CG13526 | DRSC04168 | 0.32 | 1.42 |
| CG10560 | DRSC14256 | -0.13 | -0.05 |
| Gld2 (GLD2 poly(A) polymerase) | DRSC15863 | -1.89 | -1.39 |
| CG4988 | DRSC02800 | -1.81 | 0.43 |
| HIP + HIP-R | DRSC18245 | 0.07 | 0.11 |
| CG8560 | DRSC10994 | -0.32 | -0.02 |
| CG8176 | DRSC16394 | -0.09 | 0.05 |
| lbm (late bloomer) | DRSC07643 | -0.06 | -0.1 |
| Polr2M (RNA polymerase II subunit M) | DRSC15513 | 1.85 | -0.11 |
| Awh (Arrowhead) | DRSC08140 | 0.85 | 0.57 |
| osp (outspread) | DRSC01409 | -0.01 | 0.3 |
| osp (outspread) | DRSC03585 | 0.52 | 0.53 |
| FoxL1 (Forkhead box L1) | DRSC08717 | -0.7 | -0.91 |
| ODA-Dnal1 (Outer dynein arm dynein axonemal light chain 1) | DRSC07270 | -0.14 | 0.23 |
| CG42324 | DRSC08431 | -1.71 | 0.57 |
| CG42324 | DRSC08432 | 0.11 | 0.66 |

Individual results from the list.
Value of HIP + HIP-R [DRSC18245] under “replicate 1, z-score of dpERK with insulin”: 0.07
Gld2 (GLD2 poly(A) polymerase) [DRSC15863], replicate 2, z-score of dpERK with insulin → -1.39
For “replicate 2, z-score of dpERK with insulin”, lbm (late bloomer) [DRSC07643] shows -0.1
